The exact form of at least one protein or probe is not confirmed.
How the values were obtained:
[1] = system: GST-ARFa8 DBD (Physcomitrella patens); test: EMSA; settings: 20 mM Tris pH 7.5, 100 mM KCl, 2 mM DTT, 5% glycerol, 0.1 NP40 (unit not given), 10 MgCl2 (unit not given), 0.5 ug poly(dI-dC), 150 fmol probe in 20 ul; recombinant protein; protein details: GST (pDEST15); label: 3' biotin
[2] = system: GST-ARFb4 DBD (Physcomitrella patens); test: EMSA; settings: 20 mM Tris pH 7.5, 100 mM KCl, 2 mM DTT, 5% glycerol, 0.1 NP40 (unit not given), 10 MgCl2 (unit not given), 0.5 ug poly(dI-dC), 150 fmol probe in 20 ul; recombinant protein; protein details: GST (pDEST15); label: 3' biotin

Sequence | binding result [1] | binding result [2]
AGGGTTTGTCCGGTCTGGGAATACATATATGTTGGAGACATGCTC (double strand) [ARFb4 promoter probe (PML1108/1109)] | binds | binds
GGGGAAGTGGATGAGACACAGGAGATGAGACACAATGGATGAATG (double strand) [IAA1B promoter probe (PML1068/1069)] | binds | binds
CCTTTTGTCTCCCTTTTGTCTCCCTTTTGTCTCCCTTTTGTCTC (double strand) [DR5 probe (PML839/840)] | binds | binds
TGTGAGAGAGGGGGGGGGTGTCAGTGTCTCCGGCTTCAGTTTT (double strand) [IAA1A promoter probe (PML1082/1083)] | binds | binds

Source: PMC4889330
